Some of the results follow. Most values lie at the level of the controls, where differences are scatter.

The chains behind the UniProt entries cited, without tags or fusion partners. Where a name states a change or a piece, a line headed by the entry shows the natural chain unless it says otherwise.
UniProt Q7L0Y3: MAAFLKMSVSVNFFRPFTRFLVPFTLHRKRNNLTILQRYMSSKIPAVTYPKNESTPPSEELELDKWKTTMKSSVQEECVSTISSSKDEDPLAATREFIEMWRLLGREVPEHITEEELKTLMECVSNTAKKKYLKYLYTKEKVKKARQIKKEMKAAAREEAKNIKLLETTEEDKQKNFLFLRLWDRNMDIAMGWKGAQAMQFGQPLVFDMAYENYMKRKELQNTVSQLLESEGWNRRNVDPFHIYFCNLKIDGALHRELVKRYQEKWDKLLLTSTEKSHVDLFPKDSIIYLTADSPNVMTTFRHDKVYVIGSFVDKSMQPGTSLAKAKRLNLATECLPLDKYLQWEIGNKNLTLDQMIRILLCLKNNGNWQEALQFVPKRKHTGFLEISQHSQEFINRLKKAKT
UniProt Q7Z3B4: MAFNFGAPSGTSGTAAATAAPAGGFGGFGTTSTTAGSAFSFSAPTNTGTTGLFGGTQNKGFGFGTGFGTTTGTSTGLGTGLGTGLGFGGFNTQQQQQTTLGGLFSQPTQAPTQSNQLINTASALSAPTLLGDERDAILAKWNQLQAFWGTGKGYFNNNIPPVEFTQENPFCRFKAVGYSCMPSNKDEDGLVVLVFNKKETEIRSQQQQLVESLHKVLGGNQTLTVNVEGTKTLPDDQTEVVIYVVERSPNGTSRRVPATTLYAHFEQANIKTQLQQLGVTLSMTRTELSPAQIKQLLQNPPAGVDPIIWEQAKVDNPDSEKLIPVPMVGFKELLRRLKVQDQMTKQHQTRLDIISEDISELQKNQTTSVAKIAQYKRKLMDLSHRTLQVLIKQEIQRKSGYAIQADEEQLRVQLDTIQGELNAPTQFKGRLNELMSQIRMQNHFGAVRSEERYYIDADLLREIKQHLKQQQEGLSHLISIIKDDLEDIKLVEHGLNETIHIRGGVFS
UniProt Q6ZVK8: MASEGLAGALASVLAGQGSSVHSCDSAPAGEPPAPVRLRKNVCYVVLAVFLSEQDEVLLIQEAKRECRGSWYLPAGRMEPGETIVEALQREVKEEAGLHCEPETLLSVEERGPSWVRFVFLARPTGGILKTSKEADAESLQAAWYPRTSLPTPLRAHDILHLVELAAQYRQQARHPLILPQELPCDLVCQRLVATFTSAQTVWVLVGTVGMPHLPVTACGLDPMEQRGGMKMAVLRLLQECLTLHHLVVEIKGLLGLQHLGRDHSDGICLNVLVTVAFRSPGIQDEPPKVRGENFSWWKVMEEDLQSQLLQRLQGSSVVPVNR
UniProt Q7Z7K6: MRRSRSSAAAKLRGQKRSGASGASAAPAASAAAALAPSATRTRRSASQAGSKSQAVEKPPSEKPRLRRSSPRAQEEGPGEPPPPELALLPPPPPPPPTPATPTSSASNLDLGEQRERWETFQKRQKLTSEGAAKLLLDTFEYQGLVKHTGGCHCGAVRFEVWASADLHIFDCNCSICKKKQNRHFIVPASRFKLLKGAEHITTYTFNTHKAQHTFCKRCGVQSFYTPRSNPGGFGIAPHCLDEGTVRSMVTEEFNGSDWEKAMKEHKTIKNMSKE
UniProt Q7Z736: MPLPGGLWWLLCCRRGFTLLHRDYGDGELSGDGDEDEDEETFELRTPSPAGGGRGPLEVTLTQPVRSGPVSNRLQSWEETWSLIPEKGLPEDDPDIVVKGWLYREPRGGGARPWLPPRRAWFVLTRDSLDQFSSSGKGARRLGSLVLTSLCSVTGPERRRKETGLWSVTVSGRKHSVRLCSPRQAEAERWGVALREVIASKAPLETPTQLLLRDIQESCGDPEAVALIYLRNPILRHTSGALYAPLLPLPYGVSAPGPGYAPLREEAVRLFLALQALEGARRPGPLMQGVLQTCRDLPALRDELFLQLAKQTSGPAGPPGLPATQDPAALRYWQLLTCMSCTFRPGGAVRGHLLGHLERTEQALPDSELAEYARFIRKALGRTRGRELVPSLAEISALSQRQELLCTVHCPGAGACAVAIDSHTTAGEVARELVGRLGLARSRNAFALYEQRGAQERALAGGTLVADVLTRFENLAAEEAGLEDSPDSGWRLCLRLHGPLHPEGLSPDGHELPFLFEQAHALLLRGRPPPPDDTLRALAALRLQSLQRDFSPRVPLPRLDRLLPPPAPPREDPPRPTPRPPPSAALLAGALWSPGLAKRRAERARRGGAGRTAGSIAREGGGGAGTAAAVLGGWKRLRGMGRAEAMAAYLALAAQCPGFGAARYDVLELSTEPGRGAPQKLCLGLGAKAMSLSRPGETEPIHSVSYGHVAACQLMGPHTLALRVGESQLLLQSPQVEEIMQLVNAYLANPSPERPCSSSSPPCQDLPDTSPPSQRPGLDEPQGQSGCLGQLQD
UniProt Q86TP1: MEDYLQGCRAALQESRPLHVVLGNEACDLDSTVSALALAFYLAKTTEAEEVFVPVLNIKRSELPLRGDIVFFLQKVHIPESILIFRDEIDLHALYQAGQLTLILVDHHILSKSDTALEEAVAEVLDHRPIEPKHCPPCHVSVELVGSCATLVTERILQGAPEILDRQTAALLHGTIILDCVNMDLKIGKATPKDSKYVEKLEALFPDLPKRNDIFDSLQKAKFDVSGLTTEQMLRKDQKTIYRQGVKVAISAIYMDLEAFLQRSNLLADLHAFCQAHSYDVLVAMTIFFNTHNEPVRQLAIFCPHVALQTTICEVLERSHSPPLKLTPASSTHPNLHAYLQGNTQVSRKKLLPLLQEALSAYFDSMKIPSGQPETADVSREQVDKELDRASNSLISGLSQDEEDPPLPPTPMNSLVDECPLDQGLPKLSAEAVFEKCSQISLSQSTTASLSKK
UniProt Q7Z4G4: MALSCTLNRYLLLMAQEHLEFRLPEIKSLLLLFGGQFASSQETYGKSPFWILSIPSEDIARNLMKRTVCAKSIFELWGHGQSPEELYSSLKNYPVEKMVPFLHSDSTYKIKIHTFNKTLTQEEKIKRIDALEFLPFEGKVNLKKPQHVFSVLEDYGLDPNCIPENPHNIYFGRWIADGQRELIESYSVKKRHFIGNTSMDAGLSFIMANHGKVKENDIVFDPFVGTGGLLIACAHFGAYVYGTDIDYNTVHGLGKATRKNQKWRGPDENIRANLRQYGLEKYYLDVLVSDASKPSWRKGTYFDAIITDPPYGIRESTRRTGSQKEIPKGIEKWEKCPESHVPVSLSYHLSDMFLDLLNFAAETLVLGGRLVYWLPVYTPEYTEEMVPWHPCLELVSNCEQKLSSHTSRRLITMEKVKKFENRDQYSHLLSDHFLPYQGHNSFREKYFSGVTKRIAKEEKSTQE
UniProt Q7Z422: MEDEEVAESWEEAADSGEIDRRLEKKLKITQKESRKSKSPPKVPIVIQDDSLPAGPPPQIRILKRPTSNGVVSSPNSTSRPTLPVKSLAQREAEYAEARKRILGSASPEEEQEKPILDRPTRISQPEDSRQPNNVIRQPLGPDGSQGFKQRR
UniProt Q86UX6: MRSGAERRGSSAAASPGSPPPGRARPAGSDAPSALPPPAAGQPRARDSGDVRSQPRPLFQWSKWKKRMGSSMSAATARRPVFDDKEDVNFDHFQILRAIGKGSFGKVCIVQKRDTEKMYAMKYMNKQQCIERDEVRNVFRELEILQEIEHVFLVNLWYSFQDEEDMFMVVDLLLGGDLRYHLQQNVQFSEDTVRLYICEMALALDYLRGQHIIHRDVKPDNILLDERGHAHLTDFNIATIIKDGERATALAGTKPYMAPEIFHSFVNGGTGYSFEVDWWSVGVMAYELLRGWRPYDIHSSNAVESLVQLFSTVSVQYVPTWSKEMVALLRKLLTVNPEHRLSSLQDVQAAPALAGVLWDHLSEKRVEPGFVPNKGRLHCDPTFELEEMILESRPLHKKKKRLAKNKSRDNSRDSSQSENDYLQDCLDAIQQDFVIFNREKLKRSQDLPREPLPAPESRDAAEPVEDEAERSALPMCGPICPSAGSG
UniProt Q7Z494: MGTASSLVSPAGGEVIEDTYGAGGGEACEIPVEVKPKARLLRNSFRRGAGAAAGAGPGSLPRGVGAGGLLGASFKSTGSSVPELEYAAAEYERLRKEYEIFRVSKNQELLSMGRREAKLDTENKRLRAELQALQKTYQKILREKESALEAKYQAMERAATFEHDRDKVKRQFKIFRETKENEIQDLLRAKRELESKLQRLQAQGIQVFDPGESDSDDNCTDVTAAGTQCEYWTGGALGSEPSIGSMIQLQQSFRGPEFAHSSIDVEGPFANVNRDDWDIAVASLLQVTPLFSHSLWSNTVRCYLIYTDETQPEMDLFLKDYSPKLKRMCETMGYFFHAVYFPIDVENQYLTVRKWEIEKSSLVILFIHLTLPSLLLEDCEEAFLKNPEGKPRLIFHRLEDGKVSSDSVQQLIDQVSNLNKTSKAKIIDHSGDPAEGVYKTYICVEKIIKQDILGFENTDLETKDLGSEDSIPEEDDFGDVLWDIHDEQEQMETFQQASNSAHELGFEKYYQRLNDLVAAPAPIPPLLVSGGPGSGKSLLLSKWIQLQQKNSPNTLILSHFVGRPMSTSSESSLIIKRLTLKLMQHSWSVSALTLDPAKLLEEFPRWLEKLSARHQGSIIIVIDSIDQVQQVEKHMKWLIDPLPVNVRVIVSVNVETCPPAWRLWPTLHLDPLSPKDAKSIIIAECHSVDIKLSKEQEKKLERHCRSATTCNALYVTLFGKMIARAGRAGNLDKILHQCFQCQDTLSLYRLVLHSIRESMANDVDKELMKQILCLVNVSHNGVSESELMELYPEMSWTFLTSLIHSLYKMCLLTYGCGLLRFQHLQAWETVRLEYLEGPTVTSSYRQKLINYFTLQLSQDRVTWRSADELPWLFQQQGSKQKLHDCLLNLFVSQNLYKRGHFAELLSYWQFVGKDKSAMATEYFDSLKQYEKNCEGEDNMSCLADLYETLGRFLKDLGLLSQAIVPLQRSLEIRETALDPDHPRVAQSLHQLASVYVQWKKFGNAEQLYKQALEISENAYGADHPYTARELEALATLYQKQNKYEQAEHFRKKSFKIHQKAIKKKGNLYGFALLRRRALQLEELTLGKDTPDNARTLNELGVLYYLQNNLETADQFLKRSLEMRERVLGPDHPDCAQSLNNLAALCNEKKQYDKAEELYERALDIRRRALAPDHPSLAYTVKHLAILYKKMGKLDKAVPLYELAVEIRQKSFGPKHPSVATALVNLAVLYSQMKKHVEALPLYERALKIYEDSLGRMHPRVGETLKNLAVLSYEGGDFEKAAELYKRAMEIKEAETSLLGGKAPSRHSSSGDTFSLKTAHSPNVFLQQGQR
UniProt Q7L7X3: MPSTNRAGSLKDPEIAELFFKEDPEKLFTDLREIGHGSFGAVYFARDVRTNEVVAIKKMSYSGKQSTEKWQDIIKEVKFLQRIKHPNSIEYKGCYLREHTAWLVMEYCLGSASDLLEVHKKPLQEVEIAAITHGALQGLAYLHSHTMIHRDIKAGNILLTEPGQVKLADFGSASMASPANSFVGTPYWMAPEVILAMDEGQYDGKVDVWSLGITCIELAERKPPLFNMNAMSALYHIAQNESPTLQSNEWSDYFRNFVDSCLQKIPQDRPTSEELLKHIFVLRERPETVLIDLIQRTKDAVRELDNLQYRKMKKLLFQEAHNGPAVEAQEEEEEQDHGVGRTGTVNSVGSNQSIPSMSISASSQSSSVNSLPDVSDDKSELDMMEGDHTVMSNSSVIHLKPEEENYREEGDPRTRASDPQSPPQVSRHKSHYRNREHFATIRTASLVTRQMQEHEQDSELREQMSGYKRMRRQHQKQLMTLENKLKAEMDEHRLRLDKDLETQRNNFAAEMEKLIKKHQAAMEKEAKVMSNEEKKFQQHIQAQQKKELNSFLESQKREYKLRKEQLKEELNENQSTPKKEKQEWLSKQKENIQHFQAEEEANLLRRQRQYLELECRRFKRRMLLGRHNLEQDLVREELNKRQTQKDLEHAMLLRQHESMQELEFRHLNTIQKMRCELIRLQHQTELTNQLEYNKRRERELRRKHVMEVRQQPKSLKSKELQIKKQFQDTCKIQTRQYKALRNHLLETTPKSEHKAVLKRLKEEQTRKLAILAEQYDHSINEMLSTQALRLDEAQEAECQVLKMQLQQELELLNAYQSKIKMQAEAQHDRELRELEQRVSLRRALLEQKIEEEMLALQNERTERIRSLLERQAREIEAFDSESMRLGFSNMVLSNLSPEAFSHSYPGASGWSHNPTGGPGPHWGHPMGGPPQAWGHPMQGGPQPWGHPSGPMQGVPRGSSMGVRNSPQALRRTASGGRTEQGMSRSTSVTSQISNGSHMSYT
UniProt Q75LS8: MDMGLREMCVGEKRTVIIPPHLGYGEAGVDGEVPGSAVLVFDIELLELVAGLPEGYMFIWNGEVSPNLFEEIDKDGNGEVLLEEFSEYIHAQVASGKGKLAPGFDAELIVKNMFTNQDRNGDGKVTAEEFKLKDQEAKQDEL
UniProt Q7L2Z9: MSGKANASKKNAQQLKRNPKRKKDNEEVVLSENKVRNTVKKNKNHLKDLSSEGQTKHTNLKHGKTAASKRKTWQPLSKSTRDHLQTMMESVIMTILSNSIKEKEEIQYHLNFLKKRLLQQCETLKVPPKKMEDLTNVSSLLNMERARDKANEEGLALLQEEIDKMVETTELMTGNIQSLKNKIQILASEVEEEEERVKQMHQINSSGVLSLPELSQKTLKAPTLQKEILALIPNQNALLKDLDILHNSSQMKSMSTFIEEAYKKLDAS

Compound in the assay: CN[C@@H]1C[C@H]2O[C@@](C)([C@@H]1OC)n1c3ccccc3c3c4c(c5c6ccccc6n2c5c31)C(=O)NC4 [staurosporine]
Kind of assay: log2 fold change of tryptic peptide abundance, ligand vs vehicle (limited proteolysis) (log2 ratio); higher = more trypsin-susceptible (destabilized). The following applies: ligand concentration: 20 uM; sample: K562 cleared lysate; digestion: 4 min, 22 C (HT-PELSA RT4min, Orbitrap Astral).
For the target “UniProt Q7L0Y3 (peptide sequence: YLYTKEK, peptide start residue: 135)”, the log2 fold change stood at 0.643. Then “C5orf24 (peptide sequence: VSPGRPPGSIK, peptide start residue: 136) (UniProt Q7Z6I8)”, with -0.326; and “UniProt Q86U38 (peptide sequence: CGVHVLQSALLQLPR, peptide start residue: 141)”, with 0.216. Take “UniProt Q7RTT5 (peptide sequence: ISYVYMK, peptide start residue: 46)”: the log2 fold change was -0.294. Turning to “KBTBD6 (peptide sequence: YGDLLYK, peptide start residue: 303) (UniProt Q86V97)”, the log2 fold change turned out to be 0.0927. The same measure for “RABEPK (peptide sequence: YEHASFIPSCTPDR, peptide start residue: 87) (UniProt Q7Z6M1)”: -0.525; for “KTN1 (peptide sequence: QNDQVSFASLVEELKK, peptide start residue: 786) (UniProt Q86UP2)”: 0.281.

With “ZC3H18 (peptide sequence: RFTVTIGEDER, peptide start residue: 329) (UniProt Q86VM9)”, the log2 fold change is -0.383. Then “HOOK3 (peptide sequence: KKEEEMK, peptide start residue: 592) (UniProt Q86VS8)”, with 0.392; and “NUP54 (peptide sequence: SQQQQLVESLHK, peptide start residue: 204) (UniProt Q7Z3B4)”, with 0.654. Then “STXBP4 (peptide sequence: RIMVLDCQLR, peptide start residue: 405) (UniProt Q6ZWJ1)”, with 0.896; and “DEF8 (peptide sequence: QAHLNPFNK, peptide start residue: 73) (UniProt Q6ZN54)”, with -0.199. Take “IQGAP3 (peptide sequence: GQSALQEILGK, peptide start residue: 1048) (UniProt Q86VI3)”: the log2 fold change was 0.242. As for “DHX32 (peptide sequence: QTVVQLALR, peptide start residue: 121) (UniProt Q7L7V1)”, the log2 fold change came to 0.507.

In the case of “C11orf74 (peptide sequence: FSPAEIENIK, peptide start residue: 192) (UniProt Q86VG3)”, the log2 fold change came to 0.105.

“NUDT18 (peptide sequence: LQGSSVVPVNR, peptide start residue: 313) (UniProt Q6ZVK8)”: the log2 fold change is 0.215. Then “EMSY (peptide sequence: ITTIPMTSKPNVIVVQK, peptide start residue: 567) (UniProt Q7Z589)”, with 0.314. Take “CENPV (peptide sequence: CGVQSFYTPR, peptide start residue: 219) (UniProt Q7Z7K6)”: the log2 fold change amounted to 0.304. Then “UniProt Q7Z736 (peptide sequence: EGGGGAGTAAAVLGGWKR, peptide start residue: 619)”, with -0.48; and “UniProt Q86TP1 (peptide sequence: RSELPLRGDIVFFLQK, peptide start residue: 60)”, with 0.517. With “UniProt Q71UM5 (peptide sequence: DLLHPSLEEEK, peptide start residue: 6)”, the log2 fold change came to 0.201. Turning to “UniProt Q7Z4V5 (peptide sequence: REQEEELRR, peptide start residue: 333)”, the log2 fold change is 0.694. The same measure for “UniProt Q70Z53 (peptide sequence: GQFFCGNKYCDK, peptide start residue: 171)”: -0.69.

Turning to “TRMT11 (peptide sequence: EKYFSGVTKR, peptide start residue: 444) (UniProt Q7Z4G4)”, the log2 fold change came to 0.817. Then “UniProt Q7Z422 (peptide sequence: RPTSNGVVSSPNSTSR, peptide start residue: 65)”, with -0.948. The same measure for “PRPF39 (peptide sequence: ILGIPTQLYSHHFQR, peptide start residue: 232) (UniProt Q86UA1)”: 0.547. Then “YANK3 (peptide sequence: SQDLPREPLPAPESR, peptide start residue: 444) (UniProt Q86UX6)”, with -0.644; and “UniProt Q7Z6M4 (peptide sequence: CLFTVQQVTK, peptide start residue: 205)”, with 0.0648. On to “UniProt Q6ZSZ5 (peptide sequence: EDASKEDVIFF, peptide start residue: 1351)”, for which the log2 fold change was -0.274. The same measure for “UniProt Q7Z494 (peptide sequence: HSSSGDTFSLK, peptide start residue: 1306)”: 0.54; for “TAOK1 (peptide sequence: HNLEQDLVREELNKR, peptide start residue: 627) (UniProt Q7L7X3)”: -0.28; for “UniProt Q75LS8 (peptide sequence: LAPGFDAELIVK, peptide start residue: 528)”: -0.196. The same measure for “NFXL1 (peptide sequence: ATAAPSGNGVHLR, peptide start residue: 19) (UniProt Q6ZNB6)”: 0.249; for “MON1B (peptide sequence: RCTAPGLALSVLAVGGR, peptide start residue: 267) (UniProt Q7L1V2)”: -0.244.

Take “DENND4A (peptide sequence: YSISGPHVLPIEK, peptide start residue: 335) (UniProt Q7Z401)”: the log2 fold change was 0.692. The same measure for “UniProt Q7RTT6 (peptide sequence: YFSKEEWEK, peptide start residue: 31)”: 0.119; for “CENPQ (peptide sequence: DLDILHNSSQMK, peptide start residue: 241) (UniProt Q7L2Z9)”: 0.329.

The record behind these values is the supplement of paper PMC12819154, “High-throughput peptide-centric local stability assay extends protein–ligand identification to membrane proteins, tissues and bacteria” (Nature Structural & Molecular Biology, 2025).
